Experiment [1] has as its target T1, FLAG-Rab43 (Ras-related GTP-binding protein 43, from plasmid pcDNA3.1-3xflag-Rab43) (UniProt Q8CG50).
T1 sequence: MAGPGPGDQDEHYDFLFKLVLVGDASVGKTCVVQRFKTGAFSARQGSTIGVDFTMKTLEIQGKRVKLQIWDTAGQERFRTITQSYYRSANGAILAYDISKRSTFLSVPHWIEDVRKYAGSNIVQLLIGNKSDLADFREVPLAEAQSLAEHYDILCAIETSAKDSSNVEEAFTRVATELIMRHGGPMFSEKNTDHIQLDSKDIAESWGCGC
Put plainly: co-IP; lysate (M-PER reagent) of RAW264.7 cells transfected with pcDNA3.1-3xflag-Rab43 for 48 h; anti-FLAG antibody (1:50) overnight, protein A/G agarose beads 3 h at 4°C; immunoblot with anti-CD91 antibody.

Sequences of proteins named here, by UniProt entry; tags and fusion partners are left off. Residues count along the entry.
UniProt Q91ZX7, residues 20-4545: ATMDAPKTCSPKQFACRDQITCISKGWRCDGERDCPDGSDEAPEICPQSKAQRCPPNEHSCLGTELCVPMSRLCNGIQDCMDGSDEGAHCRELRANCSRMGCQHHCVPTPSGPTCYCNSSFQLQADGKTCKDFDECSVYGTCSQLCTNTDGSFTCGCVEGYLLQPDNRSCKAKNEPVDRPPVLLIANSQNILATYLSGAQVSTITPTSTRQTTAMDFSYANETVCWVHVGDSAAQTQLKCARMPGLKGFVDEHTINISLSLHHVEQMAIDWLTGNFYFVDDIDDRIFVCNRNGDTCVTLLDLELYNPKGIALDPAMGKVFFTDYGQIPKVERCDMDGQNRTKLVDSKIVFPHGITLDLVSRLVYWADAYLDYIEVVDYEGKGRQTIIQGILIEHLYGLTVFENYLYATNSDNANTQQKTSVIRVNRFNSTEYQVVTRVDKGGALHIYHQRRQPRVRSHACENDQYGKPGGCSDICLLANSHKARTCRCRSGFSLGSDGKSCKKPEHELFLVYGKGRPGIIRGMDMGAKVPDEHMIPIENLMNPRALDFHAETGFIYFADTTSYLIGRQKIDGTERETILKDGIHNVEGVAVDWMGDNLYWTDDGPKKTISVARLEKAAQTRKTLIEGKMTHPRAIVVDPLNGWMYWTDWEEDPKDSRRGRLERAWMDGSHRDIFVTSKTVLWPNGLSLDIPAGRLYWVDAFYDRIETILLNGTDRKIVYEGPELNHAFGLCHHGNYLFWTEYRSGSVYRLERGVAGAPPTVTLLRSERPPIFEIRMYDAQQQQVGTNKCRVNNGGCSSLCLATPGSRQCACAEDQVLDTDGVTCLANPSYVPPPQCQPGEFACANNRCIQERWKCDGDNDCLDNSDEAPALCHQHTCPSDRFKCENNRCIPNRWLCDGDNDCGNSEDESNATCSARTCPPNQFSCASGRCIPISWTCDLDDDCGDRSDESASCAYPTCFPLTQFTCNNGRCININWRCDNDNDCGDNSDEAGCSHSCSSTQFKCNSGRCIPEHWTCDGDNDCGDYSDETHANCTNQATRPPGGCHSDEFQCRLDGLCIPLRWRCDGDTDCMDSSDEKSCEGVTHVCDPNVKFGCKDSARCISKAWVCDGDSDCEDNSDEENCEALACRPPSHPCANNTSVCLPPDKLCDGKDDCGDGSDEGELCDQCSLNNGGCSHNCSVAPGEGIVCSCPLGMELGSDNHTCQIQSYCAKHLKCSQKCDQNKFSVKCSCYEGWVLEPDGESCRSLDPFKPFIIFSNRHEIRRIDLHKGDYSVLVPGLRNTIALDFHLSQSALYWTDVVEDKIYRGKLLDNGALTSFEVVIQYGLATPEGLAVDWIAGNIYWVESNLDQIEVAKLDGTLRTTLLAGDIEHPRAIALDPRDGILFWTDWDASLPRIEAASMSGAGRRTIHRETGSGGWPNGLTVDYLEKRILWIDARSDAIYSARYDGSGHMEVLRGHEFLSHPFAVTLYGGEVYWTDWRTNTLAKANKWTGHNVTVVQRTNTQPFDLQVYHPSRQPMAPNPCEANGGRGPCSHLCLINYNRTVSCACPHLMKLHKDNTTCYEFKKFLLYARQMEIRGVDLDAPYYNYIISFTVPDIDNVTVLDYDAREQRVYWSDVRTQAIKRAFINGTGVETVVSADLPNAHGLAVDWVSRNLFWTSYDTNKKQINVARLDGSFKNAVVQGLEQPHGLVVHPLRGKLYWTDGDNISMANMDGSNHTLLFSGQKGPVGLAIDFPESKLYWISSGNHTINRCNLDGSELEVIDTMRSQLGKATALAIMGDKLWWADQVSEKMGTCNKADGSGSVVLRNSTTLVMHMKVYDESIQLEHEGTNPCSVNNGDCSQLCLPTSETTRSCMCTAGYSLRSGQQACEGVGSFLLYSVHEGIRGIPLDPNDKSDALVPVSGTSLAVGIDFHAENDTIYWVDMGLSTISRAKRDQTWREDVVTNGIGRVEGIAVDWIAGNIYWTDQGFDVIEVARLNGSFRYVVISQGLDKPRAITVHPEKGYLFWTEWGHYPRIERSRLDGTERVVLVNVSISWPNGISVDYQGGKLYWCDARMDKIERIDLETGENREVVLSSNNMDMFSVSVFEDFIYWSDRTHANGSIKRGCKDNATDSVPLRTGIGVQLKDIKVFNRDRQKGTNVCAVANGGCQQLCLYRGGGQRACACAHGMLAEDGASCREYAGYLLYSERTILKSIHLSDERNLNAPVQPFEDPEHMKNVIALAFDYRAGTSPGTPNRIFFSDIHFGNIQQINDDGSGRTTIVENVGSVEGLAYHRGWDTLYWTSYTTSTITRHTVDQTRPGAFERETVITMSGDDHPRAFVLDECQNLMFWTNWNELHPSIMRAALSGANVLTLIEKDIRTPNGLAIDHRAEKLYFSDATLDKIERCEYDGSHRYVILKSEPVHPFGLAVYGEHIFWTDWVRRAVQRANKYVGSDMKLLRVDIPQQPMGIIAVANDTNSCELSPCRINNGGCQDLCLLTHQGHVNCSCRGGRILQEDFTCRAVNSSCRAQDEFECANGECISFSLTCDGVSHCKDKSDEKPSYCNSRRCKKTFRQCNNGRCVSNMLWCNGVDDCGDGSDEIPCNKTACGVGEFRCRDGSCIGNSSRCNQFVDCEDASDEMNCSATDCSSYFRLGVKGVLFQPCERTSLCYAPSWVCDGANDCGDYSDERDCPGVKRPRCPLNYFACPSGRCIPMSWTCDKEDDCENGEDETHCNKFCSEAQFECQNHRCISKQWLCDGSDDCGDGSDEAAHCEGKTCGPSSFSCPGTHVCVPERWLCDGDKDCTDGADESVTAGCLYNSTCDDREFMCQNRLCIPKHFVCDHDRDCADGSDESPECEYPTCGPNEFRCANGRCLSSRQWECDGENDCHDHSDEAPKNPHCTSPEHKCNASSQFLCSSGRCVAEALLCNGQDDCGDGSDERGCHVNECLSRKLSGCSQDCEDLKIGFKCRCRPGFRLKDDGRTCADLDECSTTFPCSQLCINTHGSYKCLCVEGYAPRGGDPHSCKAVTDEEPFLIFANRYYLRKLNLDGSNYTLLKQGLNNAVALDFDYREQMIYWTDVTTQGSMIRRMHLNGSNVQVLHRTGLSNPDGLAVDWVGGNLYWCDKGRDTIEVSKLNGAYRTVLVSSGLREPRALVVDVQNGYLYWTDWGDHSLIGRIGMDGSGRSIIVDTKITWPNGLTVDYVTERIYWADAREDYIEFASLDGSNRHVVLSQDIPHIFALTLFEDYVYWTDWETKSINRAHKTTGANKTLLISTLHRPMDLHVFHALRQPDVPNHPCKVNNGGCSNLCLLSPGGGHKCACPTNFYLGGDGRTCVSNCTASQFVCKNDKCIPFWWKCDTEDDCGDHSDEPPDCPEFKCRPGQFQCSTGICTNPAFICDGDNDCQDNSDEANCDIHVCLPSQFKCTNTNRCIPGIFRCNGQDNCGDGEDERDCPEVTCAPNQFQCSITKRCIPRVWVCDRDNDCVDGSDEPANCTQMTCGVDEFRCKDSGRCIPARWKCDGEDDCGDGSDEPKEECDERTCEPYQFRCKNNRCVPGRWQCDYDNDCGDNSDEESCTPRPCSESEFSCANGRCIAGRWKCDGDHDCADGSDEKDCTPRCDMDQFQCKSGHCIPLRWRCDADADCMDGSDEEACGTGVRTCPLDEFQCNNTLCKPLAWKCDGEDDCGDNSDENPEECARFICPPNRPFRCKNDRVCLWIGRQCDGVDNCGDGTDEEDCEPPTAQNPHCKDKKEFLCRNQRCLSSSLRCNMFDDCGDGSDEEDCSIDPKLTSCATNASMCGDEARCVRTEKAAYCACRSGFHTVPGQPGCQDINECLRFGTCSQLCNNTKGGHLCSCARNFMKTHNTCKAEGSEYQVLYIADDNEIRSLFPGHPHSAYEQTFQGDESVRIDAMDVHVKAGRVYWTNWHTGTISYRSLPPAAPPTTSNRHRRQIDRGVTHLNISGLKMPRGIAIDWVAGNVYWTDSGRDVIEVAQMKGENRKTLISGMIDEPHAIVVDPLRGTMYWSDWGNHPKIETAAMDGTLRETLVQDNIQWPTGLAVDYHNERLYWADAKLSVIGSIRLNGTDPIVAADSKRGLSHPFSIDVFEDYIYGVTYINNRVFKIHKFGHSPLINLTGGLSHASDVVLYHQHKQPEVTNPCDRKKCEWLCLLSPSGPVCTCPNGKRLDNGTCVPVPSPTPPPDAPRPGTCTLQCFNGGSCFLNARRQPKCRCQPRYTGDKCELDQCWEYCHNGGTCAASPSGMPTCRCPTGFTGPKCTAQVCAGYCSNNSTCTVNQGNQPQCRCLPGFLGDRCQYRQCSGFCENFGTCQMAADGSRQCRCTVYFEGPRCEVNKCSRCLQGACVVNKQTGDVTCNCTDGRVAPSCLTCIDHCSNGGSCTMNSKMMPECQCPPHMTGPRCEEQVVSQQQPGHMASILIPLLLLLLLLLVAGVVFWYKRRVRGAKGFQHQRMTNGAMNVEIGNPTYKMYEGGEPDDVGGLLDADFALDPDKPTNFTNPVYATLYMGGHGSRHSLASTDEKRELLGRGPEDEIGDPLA

In experiment [2] the target is cluster of differentiation 91 (CD91), LDL receptor-related protein 1 (mouse (endogenous in RAW264.7)) (UniProt Q91ZX7). Put plainly: co-IP; lysate of RAW264.7 cells transfected with pcDNA3.1-GFP-Rab43; immunoprecipitated with anti-CD91 antibody, immunoblot with anti-GFP antibody. In general terms: In western blotting, separated proteins are transferred to a membrane and probed.

For 2 molecules, binding results are on record in paper PMC8980266.

Results are given in words; binding and its absence hold for the method and conditions named. In cells and extracts the contact can be indirect. Some entries that bind do so weakly or less than the wild type. Sequences can lack the tags named with a protein.

As to “cluster of differentiation 91 (CD91), LDL receptor-related protein 1 (from UniProt Q91ZX7 20-4545)”, the binding entry in experiment [1] was “binds”.

B1: GFP-Rab43 (from plasmid pcDNA3.1-GFP-Rab43) (protein, UniProt Q8CG50 1-210)
chain: MAGPGPGDQDEHYDFLFKLVLVGDASVGKTCVVQRFKTGAFSARQGSTIGVDFTMKTLEIQGKRVKLQIWDTAGQERFRTITQSYYRSANGAILAYDISKRSTFLSVPHWIEDVRKYAGSNIVQLLIGNKSDLADFREVPLAEAQSLAEHYDILCAIETSAKDSSNVEEAFTRVATELIMRHGGPMFSEKNTDHIQLDSKDIAESWGCGC
B1: in experiment [2], the binding entry is listed as “binds”.
